Measurements reported in PubChem BioAssay AID504793 (Drosophila RNAi Screening Center, 2011).
The deposit covers about 23,000 reagents; shown is an unselected part of those that have a named target and a result. Of all reagents, 62 (0.27%) were called active. 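Calls come from follow-up tests whose scores are not deposited, so confirmed genes may have low counts here; counts are not normalised per plate.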 The raw values are shown without normalisation. Names joined by + are all predicted targets of the reagent.

Purpose: 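Whole-genome screen for parts of the DNA damage checkpoint at G2/M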 (primary screen)
System: Drosophila S2R+ cells
Knock-down reagent: long dsRNA against Drosophila genes, about 0.25 µg dsRNA per well
Time to read-out: 4 days of dsRNA, then 4 hours of drug before read-out
Treatment: doxorubicin 0.5 µM for 4 hours to cause double-strand breaks, in cells also given a low, harmless dose of dsRNA against nbs to sensitise the assay
Detection: 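Mitotic index as the number of phospho-histone H3-positive cells in each well following doxorubicin, given as raw counts without normalisation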
Reading the numbers: mitotic cells: higher = more cells in mitosis, weaker G2 arrest
Rule for the call: 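Genes are called active only when high mitotic counts were reproduced with independent dsRNAs and mitosis was checked for delay without damage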
Meaning of the calls: active = confirmed in follow-up tests; inactive = not confirmed

target gene	PubChem SID	mitotic cells, replicate 1	mitotic cells, replicate 2	outcome
CG31676	SID104182179	7		inactive
CG13231	SID104186143	3		inactive
CG13231	SID104205098	5		inactive
HP1D3csd (Heterochromatin Protein 1D3 chromoshadow domain)	SID104199340	4		inactive
CG11370	SID104191445	10		inactive
CG11370	SID104206905	5		inactive
CG4511	SID104195381	6		inactive
CG4511	SID104207184	5		inactive
Cyp6v1 (Cytochrome P450 6v1)	SID104200357	4		inactive
Cyp6v1 (Cytochrome P450 6v1)	SID104207791	4		inactive
CG2116	SID104197998	4		inactive
CG2116	SID104203299	2		inactive
CG2972	SID104198042	4		inactive
CG2972	SID104208557	14		inactive
rtp (retinophilin)	SID104191924	4		inactive
CG4554	SID104184265	10		inactive
CG4554	SID104206425	7		inactive
cysu (Curly Su)	SID104195694	10		inactive
cysu (Curly Su)	SID104207382	6		inactive
CG42288	SID104186173	7		inactive
CG42288	SID104205192	6		inactive
wal (walrus)	SID104187509	4		inactive
wal (walrus)	SID104204874	5		inactive
CG42813 + CG42814	SID104195731	7		inactive
CG42813 + CG42814	SID104195732	7		inactive
CG9083	SID104184417	12		inactive
CG9083	SID104204068	7		inactive
fj (four-jointed)	SID104187411	8		inactive
fj (four-jointed)	SID104206079	4		inactive
Fntb (Farnesyl transferase beta subunit)	SID104195036	4		inactive
Fntb (Farnesyl transferase beta subunit)	SID104206702	7		inactive
CG11226	SID104191431	5		inactive
nSyb (neuronal Synaptobrevin)	SID104188519	3		inactive
nSyb (neuronal Synaptobrevin)	SID104205621	6		inactive
CG14856	SID104194772	6		inactive
Tim17a1	SID104193976	5		inactive
ush (u-shaped)	SID104180635	4		inactive
ush (u-shaped)	SID104205068	1		inactive
MTPAP (mitochondrial poly(A) polymerase)	SID104198377	6		inactive
MTPAP (mitochondrial poly(A) polymerase)	SID104208599			inactive
CG33143	SID104183943	6		inactive
CG33143	SID104184246	4		inactive
CG33143	SID104206131	4		inactive
upd3 (unpaired 3)	SID104199428	5		inactive
upd3 (unpaired 3)	SID104199760	15		inactive
upd3 (unpaired 3)	SID104201715	20		inactive
vanin-like	SID104197232	14		inactive
ytr (yantar)	SID104184098	7		inactive
ytr (yantar)	SID104201647	6		inactive
ytr (yantar)	SID104203954	6		inactive
CG13426	SID104186180	8		inactive
eco (Establishment of cohesion)	SID104190798	13		inactive
pwn (pawn)	SID104185827	4		inactive
pwn (pawn)	SID104203770	4		inactive
CG10927	SID104185806	4		inactive
CG10927	SID104208344	9		inactive
SuUR (Suppressor of Under-Replication)	SID104191084	1		inactive
CG7906	SID104190720			inactive
CG7906	SID104208070	5		inactive
CG6661	SID104190479	1	8	inactive
CG6661	SID104216695	8		inactive
CG6661	SID104216696	10		inactive
nero	SID104195224	6		inactive
Srrm234 (Serine-arginine repetitive matrix 2/3/4)	SID104187747	19		inactive
Srrm234 (Serine-arginine repetitive matrix 2/3/4)	SID104188398	7		inactive
PAN2 (Poly(A)-binding protein-dependent poly(A) ribonuclease 2)	SID104186907	5		inactive
Rrp5 (Ribosomal RNA Processing 5)	SID104195654	9		inactive
Rrp5 (Ribosomal RNA Processing 5)	SID104207583	10		inactive
Strip (Striatin interacting protein)	SID104187986	9		inactive
Strip (Striatin interacting protein)	SID104208015	5		inactive
betaNACtes4 (Nascent-associated complex beta-subunit-like, testis 4)	SID104199593	12		inactive
Nca (Neurocalcin)	SID104191025	11		inactive
CG11249	SID104191437	5		inactive
CG32814	SID104197462	4		inactive
CG32814	SID104204586	6		inactive
Wnt4 (Wnt oncogene analog 4)	SID104180768	15		inactive
Wnt4 (Wnt oncogene analog 4)	SID104183269	4		inactive
CG17377	SID104180742	13		inactive
CG17377	SID104182407	8		inactive
CG17377	SID104201465	14		inactive
CG17377	SID104207361	4		inactive
CG12942	SID104186045	3		inactive
CG12942	SID104204531	7		inactive
CG13690	SID104180151	9		inactive
Vml (Vitelline membrane-like)	SID104197487	17		inactive
Vml (Vitelline membrane-like)	SID104198321	10		inactive
Vml (Vitelline membrane-like)	SID104206574	1		inactive
Vml (Vitelline membrane-like)	SID104207752	8		inactive
CG4641 (retired record)	SID104190231	6		inactive
CG4641 (retired record)	SID104203197	3		inactive
CG31054 (retired record) + CG4849	SID104207169	8		inactive
Nepl14 (Neprilysin-like 14)	SID104195423	9		inactive
Kal1 (Kallmann syndrome 1)	SID104195775	6		inactive
Ssk (Snakeskin)	SID104190548	7		inactive
Pits (Protein interacting with Ttk69 and Sin3A)	SID104199177	10		inactive
Pits (Protein interacting with Ttk69 and Sin3A)	SID104203559	2		inactive
Dh44-R2 (Diuretic hormone 44 receptor 2)	SID104185933	9		inactive
Dh44-R2 (Diuretic hormone 44 receptor 2)	SID104186073	3		inactive
CG12395	SID104199245	15		inactive
CG13032	SID104189704	3		inactive
ZnT63C (Zinc transporter 63C)	SID104187824	16		inactive
ZnT63C (Zinc transporter 63C)	SID104187825	10		inactive
ZnT63C (Zinc transporter 63C)	SID104188311	4		inactive
ZnT63C (Zinc transporter 63C)	SID104201590	15		inactive
ZnT63C (Zinc transporter 63C)	SID104202779	4		inactive
CG3792	SID104182517	2		inactive
CG31562 (retired record)	SID104192065	8		inactive
CG31562 (retired record)	SID104192066	4		inactive
Acbp4 (Acyl-CoA binding protein 4)	SID104190815	3		inactive
Acbp4 (Acyl-CoA binding protein 4)	SID104207482	9		inactive
